The nature of the data set: general procedure: peptide synthesis; chloro trityl chloride resin (CTL resin, Nova Biochem Cat No. 01-64-0021). The conditions noted are these: whole synthesis; for crude yield: scale of the general procedure 700 mg resin.

Substance “H-QCRFFRSAC-OH (cysteine pairing not given here)” gave a crude mass of 0.75 g and a crude yield of 86.5%.

Turning to “H-YCRFFNAFC-OH (cysteine pairing not given here)”, the crude mass was 0.70 g and the crude yield is given as 80.7%.

Source of the values: US20170051014A1 (CAREGEN CO., LTD., priority 2014, published 2017).
